These results are taken from article PMC10896979.

No constants are given. Whether binding was seen depends on the method and setting. For some assays here: Binding seen in cells or lysates may run through a third protein. Some binding calls cover weakened binding; strength is not graded here. For some assays here: Where a sequence is shown, tags or fusion partners need not be part of it.

Assay [1] has as its target T1, PalmD (endogenous, rat primary neurons) (rat (endogenous in rat primary neurons)) (UniProt Q4KM62).
T1 sequence: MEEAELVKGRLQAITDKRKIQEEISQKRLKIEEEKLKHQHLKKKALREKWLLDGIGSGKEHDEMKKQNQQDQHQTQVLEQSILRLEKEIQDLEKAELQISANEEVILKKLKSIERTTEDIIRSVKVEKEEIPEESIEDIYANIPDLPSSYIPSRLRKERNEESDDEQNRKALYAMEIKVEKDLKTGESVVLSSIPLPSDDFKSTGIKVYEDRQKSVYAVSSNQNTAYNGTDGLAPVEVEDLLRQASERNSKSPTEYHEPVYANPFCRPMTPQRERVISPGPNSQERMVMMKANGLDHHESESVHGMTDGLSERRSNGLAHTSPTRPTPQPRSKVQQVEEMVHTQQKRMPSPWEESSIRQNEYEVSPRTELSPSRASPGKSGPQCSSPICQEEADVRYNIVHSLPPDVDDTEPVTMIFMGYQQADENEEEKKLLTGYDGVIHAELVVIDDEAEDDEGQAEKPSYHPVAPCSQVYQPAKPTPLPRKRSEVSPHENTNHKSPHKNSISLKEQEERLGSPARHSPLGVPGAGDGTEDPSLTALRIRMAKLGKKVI
Nature of the assay: co-IP; endogenous proteins from rat primary cortical neurons lysed at DIV9; IP of Pdlim5 with blot of PalmD, and the inverse; Protein-A and Protein-G Dynabeads, 4°C.

Assay [2] deals with T2, 6x Myc Pdlim5 full length (UniProt Q62920).
T2 sequence: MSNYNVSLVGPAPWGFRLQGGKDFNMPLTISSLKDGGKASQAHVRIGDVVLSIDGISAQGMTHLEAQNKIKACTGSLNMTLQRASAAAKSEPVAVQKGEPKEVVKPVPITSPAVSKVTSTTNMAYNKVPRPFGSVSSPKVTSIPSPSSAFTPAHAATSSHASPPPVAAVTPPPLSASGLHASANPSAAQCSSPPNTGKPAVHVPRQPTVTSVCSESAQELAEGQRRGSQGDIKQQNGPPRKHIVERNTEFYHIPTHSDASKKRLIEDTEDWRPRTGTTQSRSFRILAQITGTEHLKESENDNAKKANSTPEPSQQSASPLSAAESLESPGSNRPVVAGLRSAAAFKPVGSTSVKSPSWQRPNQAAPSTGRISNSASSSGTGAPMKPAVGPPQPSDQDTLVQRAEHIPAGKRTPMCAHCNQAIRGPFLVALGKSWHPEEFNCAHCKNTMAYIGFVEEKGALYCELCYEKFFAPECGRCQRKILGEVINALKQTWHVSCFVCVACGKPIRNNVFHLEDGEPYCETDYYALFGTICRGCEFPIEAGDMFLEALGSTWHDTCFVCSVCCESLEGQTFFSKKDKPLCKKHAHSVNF
As to the kind of experiment: co-IP; exogenous epitope-tagged constructs co-transfected in HEK293 cells, lysed 24-48 h later; Protein-A and Protein-G Dynabeads, 4°C.

In the next assay the target is T3, GLS-Pdlim5 (UniProt Q62920).
T3 sequence: T2 sequence
Nature of the assay: Golgi co-relocalization assay (GLS assay); Pdlim5 directed to the Golgi by an N-terminal GLS of mTOR, partner co-expressed in HT-22 cells; fixed 24 h after transfection, immunostaining, confocal microscopy.

Assay [3] concerns the target T4, Pdlim5 (endogenous, rat primary neurons) (rat (endogenous in rat primary neurons)) (UniProt Q62920).
T4 sequence: T2 sequence
Nature of the assay: proximity ligation; endogenous proteins in rat primary hippocampal neurons fixed at DIV4; Duolink PLA kit; puncta counted in processes.

For assay [4], the target named is T4, Pdlim5 (endogenous, rat primary neurons) (rat (endogenous in rat primary neurons)). As to the kind of experiment: co-IP; endogenous proteins from rat primary cortical neurons lysed at DIV9; IP of Pdlim5 with blot of PalmD, and the inverse; Protein-A and Protein-G Dynabeads, 4°C.

B1: Pdlim5 (endogenous, rat primary neurons) (protein, UniProt Q62920 1-591)
chain: T2 sequence
Take B1: the binding entry in assay [1] was “binds”.

B2: PalmD-GFP (protein, UniProt Q9NP74 1-551)
chain: MEEAELVKGRLQAITDKRKIQEEISQKRLKIEEDKLKHQHLKKKALREKWLLDGISSGKEQEEMKKQNQQDQHQIQVLEQSILRLEKEIQDLEKAELQISTKEEAILKKLKSIERTTEDIIRSVKVEREERAEESIEDIYANIPDLPKSYIPSRLRKEINEEKEDDEQNRKALYAMEIKVEKDLKTGESTVLSSIPLPSDDFKGTGIKVYDDGQKSVYAVSSNHSAAYNGTDGLAPVEVEELLRQASERNSKSPTEYHEPVYANPFYRPTTPQRETVTPGPNFQERIKIKTNGLGIGVNESIHNMGNGLSEERGNNFNHISPIPPVPHPRSVIQQAEEKLHTPQKRLMTPWEESNVMQDKDAPSPKPRLSPRETIFGKSEHQNSSPTCQEDEEDVRYNIVHSLPPDINDTEPVTMIFMGYQQAEDSEEDKKFLTGYDGIIHAELVVIDDEEEEDEGEAEKPSYHPIAPHSQVYQPAKPTPLPRKRSEASPHENTNHKSPHKNSISLKEQEESLGSPVHHSPFDAQTTGDGTEDPSLTALRMRMAKLGKKVI
As to B2, in assay [2], the binding result is reported as “binds”.

B3: PalmD (expressed in HT-22 cells for the Golgi co-relocalization assay) (protein, UniProt Q9NP74 1-551)
chain: B2 chain
For B3, the binding entry in the assay with GLS-Pdlim5 is “binds”.

B4: PalmD (endogenous, rat primary neurons) (protein, UniProt Q4KM62 1-551)
chain: T1 sequence
Consider B4, for which the binding entry in assay [3] and in assay [4] was “binds” each time.
